Reference: PubChem BioAssay AID328 (DTP/NCI, 2004)
The list is a part of this screen's results and no random one: it gathers tests that were run many times, whatever their T/C, doses with no T/C, and many T/C values between a quarter and a half above the control. Other doses and runs of a compound stand elsewhere. T/C: endpoint of the treated group in % of that of the vehicle group. Some entries give survivors of the animals treated and no T/C: the source files T/C as zero there, which appears to mark a toxic dose or a test without result, not a measured value. Some doses without a T/C left all or most animals alive at the check, yet need not have been tolerated: survival well below the control is almost never listed, so the zero probably covers shortened survival too. Survivors were counted at the toxicity check, usually on the fifth day, unless a day is given; later deaths do not show. Schedule codes are those of the source, read here as Q, the interval in days (D) or hours (H), X, the number of doses. Some entries hold several experiments; the values are given in rising order. Marks such as (2×) count equal records among those shown. For survival time, this PubChem deposit counts one and a half times the control or more as active, and values a quarter to a half above the control carry no call in these data; other NCI protocols may use other cut-offs. Some T/C values carry the count of animals alive at the toxicity check (mostly the fifth day); where none is given, no animal had died by that day.

Test system: BDF1 mice, P388 leukemia ip, median survival T/C
Assay: NCI In Vivo Anticancer Drug Screen. Data for tumor model P388 Leukemia (intraperitoneal) in B6D2F1 (BDF1) mice
Details: T/C endpoint: median survival time, higher T/C = longer survival
Method in brief: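 In tumour-bearing mice, survival after compound treatment is set against the vehicle group and given as a quotient.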

[1] = dose: 200.0 mg/kg/injection, schedule: Q01DX001 (ip), vehicle: Klucel (hydroxypropylcellulose) (HPC)
[2] = dose: 200.0 mg/kg/injection, schedule: Q01DX009 (ip), vehicle: Klucel (hydroxypropylcellulose) (HPC)
[3] = dose: 400.0 mg/kg/injection, schedule: Q01DX001 (ip), vehicle: Klucel (hydroxypropylcellulose) (HPC)
[4] = dose: 400.0 mg/kg/injection, schedule: Q04DX002 (ip), vehicle: Klucel (hydroxypropylcellulose) (HPC)
[5] = dose: 400.0 mg/kg/injection, schedule: Q04DX003 (ip), vehicle: Klucel (hydroxypropylcellulose) (HPC)

## CC(=O)NNC(=O)c1ccccn1
dose: 100.0 mg/kg/injection, schedule: Q04DX003 (ip), vehicle: Klucel (hydroxypropylcellulose) (HPC)
  survivor count: 3 of 3
dose: 150.0 mg/kg/injection, schedule: Q01DX009 (ip), vehicle: water
  survivor count: 0 of 6
[1]
  T/C: 88, 91, 92, 94 (2×), 95, 98, 99, 100 (6×), 101 (3×), 102, 104 (2×), 106, 108, 109, 110 (2×), 111, 112, 118, 120 % of control
  survivor count: 6 of 6
dose: 200.0 mg/kg/injection, schedule: Q01DX005 (ip), vehicle: Klucel (hydroxypropylcellulose) (HPC), evaluated on day 30
  T/C: 88, 92, 92 [5 of 6 alive], 95 [2 of 3 alive], 96 [5 of 6 alive], 97, 98 [5 of 6 alive], 99, 100, 100 [5 of 6 alive], 101, 105 (2×), 107, 109, 114, 114 [2 of 3 alive], 116, 116 [5 of 6 alive], 117, 121, 139 % of control
dose: 200.0 mg/kg/injection, schedule: Q01DX005 (ip), vehicle: Klucel (hydroxypropylcellulose) (HPC), evaluated on day 35
  T/C: 105 and 108 % of control [5 of 6 alive]
dose: 200.0 mg/kg/injection, schedule: Q01DX005 (ip), vehicle: Klucel (hydroxypropylcellulose) (HPC)
  survivor count: 0 of 3, 1 of 3, 3 of 6, 3 of 3, 6 of 6
[2]
  T/C: 86, 88 [5 of 6 alive], 90, 92 [2 of 3 alive], 92 [5 of 6 alive], 94, 95, 96, 97 (2×), 98, 100 (2×), 101, 102, 103, 106, 107, 109 [2 of 3 alive], 110, 112 (2×), 118 % of control [2 of 3 alive]
  survivor count: 0 of 3, 3 of 6, 2 of 3, 4 of 6, 5 of 6, 3 of 3, 6 of 6 (2×)
dose: 200.0 mg/kg/injection, schedule: Q01DX009 (ip), vehicle: water
  survivor count: 0 of 6
dose: 200.0 mg/kg/injection, schedule: Q01DX009 (oral), vehicle: water
  survivor count: 3 of 6
dose: 200.0 mg/kg/injection, schedule: Q04DX002 (ip), vehicle: Klucel (hydroxypropylcellulose) (HPC), evaluated on day 30
  T/C: 87 (2×), 88, 90, 95 (2×), 96, 98, 99 [5 of 6 alive], 100 (2×), 101, 102 (2×), 103, 104, 105 (2×), 106, 107, 109, 110 (3×), 111, 112 (2×), 120 [5 of 6 alive], 144 % of control [2 of 3 alive]
dose: 200.0 mg/kg/injection, schedule: Q04DX002 (ip), vehicle: Klucel (hydroxypropylcellulose) (HPC), evaluated on day 35
  T/C: 102 % of control
dose: 200.0 mg/kg/injection, schedule: Q04DX002 (ip), vehicle: Klucel (hydroxypropylcellulose) (HPC)
  survivor count: 2 of 3 and 6 of 6
dose: 200.0 mg/kg/injection, schedule: Q04DX003 (ip), vehicle: Klucel (hydroxypropylcellulose) (HPC), evaluated on day 30
  T/C: 86, 87, 89, 94, 95, 96 (2×), 98, 99, 99 [4 of 6 alive], 99 [5 of 6 alive], 100 (3×), 100 [2 of 3 alive], 101, 102, 103, 104, 106, 106 [2 of 3 alive], 108, 112, 116, 117, 120, 142 % of control
dose: 200.0 mg/kg/injection, schedule: Q04DX003 (ip), vehicle: Klucel (hydroxypropylcellulose) (HPC), evaluated on day 35
  T/C: 111 % of control
dose: 200.0 mg/kg/injection, schedule: Q04DX003 (ip), vehicle: Klucel (hydroxypropylcellulose) (HPC)
  survivor count: 3 of 6 and 3 of 3
dose: 256.0 mg/kg/injection, schedule: Q01DX009 (ip), vehicle: saline
  survivor count: 5 of 10
dose: 256.0 mg/kg/injection, schedule: Q01DX009 (oral), vehicle: saline
  survivor count: 8 of 10
dose: 256.0 mg/kg/injection, schedule: Q08DX002 (ip), vehicle: saline
  survivor count: 10 of 10
[3]
  T/C: 91 [5 of 6 alive], 93 [2 of 3 alive], 110 % of control
  survivor count: 0 of 3, 0 of 6, 1 of 6, 1 of 3, 2 of 6
dose: 400.0 mg/kg/injection, schedule: Q01DX009 (oral), vehicle: water
  survivor count: 0 of 6
[4]
  T/C: 99 and 99 % of control [5 of 6 alive]
  survivor count: 0 of 3, 0 of 6 (2×), 1 of 6, 1 of 3, 2 of 6, 3 of 6
[5]
  T/C: 87 [2 of 3 alive] and 90 % of control [4 of 6 alive]
  survivor count: 0 of 3, 0 of 6 (2×), 1 of 6, 1 of 3, 2 of 6, 3 of 6, 2 of 3
dose: 512.0 mg/kg/injection, schedule: Q01DX001 (ip), vehicle: saline
  survivor count: 6 of 10
dose: 512.0 mg/kg/injection, schedule: Q01DX001 (oral), vehicle: saline
  survivor count: 5 of 10
dose: 512.0 mg/kg/injection, schedule: Q01DX009 (oral), vehicle: saline
  survivor count: 0 of 10
dose: 512.0 mg/kg/injection, schedule: Q04DX003 (ip), vehicle: saline
  survivor count: 0 of 10
dose: 512.0 mg/kg/injection, schedule: Q08DX002 (ip), vehicle: saline
  survivor count: 4 of 10
dose: 1024.0 mg/kg/injection, schedule: Q01DX001 (oral), vehicle: saline
  survivor count: 0 of 10
